Test results: the supplement of paper PMC12819154, “High-throughput peptide-centric local stability assay extends protein–ligand identification to membrane proteins, tissues and bacteria” (Nature Structural & Molecular Biology, 2025)
This is one part of the list. Small differences around the control level are noise.

Amino acid sequences for entries named in this document (tags omitted). A change or cut given only in a name is not applied to a line headed by its entry.
UniProt Q15003, whole entry: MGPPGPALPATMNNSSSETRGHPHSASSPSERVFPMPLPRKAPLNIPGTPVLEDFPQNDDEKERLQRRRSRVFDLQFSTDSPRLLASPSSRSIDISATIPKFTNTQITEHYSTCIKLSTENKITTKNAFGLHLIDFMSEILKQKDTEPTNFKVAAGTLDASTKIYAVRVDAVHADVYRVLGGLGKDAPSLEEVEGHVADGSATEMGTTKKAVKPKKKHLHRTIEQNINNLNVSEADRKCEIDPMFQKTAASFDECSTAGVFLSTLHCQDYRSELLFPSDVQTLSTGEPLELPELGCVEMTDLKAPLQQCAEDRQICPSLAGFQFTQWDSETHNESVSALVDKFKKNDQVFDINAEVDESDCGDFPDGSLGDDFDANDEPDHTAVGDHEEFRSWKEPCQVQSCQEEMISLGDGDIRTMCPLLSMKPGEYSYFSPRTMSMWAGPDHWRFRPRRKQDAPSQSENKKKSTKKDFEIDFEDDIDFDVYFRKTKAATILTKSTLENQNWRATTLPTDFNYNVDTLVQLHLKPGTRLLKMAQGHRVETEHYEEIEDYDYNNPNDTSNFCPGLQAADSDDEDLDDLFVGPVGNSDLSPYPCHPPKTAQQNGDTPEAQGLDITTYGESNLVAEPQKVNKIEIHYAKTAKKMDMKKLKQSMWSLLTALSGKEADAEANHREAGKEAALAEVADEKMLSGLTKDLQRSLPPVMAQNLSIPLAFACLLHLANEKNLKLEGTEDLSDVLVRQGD
UniProt Q13561, whole entry: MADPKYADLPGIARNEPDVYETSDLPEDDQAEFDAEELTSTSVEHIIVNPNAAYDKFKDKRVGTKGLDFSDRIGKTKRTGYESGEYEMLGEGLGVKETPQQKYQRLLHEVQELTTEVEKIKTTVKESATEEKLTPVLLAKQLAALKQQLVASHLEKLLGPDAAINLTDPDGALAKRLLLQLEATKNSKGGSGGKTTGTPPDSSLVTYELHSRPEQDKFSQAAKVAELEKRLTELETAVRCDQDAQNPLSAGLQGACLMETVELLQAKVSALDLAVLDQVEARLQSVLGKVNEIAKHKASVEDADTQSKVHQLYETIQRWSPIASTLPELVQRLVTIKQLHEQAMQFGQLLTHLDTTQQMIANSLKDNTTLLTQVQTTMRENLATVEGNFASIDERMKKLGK
UniProt Q14147: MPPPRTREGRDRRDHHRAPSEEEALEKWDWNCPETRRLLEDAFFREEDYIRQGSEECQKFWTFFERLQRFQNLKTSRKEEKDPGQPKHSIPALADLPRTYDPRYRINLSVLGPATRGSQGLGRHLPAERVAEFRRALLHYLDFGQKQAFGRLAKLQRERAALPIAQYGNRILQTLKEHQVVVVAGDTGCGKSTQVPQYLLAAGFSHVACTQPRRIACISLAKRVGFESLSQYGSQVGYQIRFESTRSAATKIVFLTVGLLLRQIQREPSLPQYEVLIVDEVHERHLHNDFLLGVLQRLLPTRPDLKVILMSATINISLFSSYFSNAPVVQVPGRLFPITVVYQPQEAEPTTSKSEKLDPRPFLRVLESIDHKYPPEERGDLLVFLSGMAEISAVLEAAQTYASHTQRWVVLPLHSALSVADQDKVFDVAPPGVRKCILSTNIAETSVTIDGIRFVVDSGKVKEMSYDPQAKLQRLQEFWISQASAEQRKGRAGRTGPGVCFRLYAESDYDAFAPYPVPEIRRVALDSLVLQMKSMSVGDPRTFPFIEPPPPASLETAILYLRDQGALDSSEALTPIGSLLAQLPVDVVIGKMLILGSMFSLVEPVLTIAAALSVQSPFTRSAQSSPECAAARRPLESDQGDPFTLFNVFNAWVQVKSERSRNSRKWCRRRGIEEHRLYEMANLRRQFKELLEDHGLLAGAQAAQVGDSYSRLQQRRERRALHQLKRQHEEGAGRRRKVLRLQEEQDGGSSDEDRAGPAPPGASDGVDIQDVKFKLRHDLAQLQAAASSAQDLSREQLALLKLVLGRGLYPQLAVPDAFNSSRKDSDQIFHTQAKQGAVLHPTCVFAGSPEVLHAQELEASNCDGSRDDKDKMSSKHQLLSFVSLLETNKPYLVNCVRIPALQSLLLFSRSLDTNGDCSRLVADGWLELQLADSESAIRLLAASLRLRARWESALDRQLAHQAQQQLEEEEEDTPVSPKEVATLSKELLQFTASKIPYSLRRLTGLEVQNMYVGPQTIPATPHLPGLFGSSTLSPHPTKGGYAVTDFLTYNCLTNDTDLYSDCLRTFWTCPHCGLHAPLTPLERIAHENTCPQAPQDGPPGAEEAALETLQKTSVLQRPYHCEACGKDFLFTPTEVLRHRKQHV
UniProt Q14186: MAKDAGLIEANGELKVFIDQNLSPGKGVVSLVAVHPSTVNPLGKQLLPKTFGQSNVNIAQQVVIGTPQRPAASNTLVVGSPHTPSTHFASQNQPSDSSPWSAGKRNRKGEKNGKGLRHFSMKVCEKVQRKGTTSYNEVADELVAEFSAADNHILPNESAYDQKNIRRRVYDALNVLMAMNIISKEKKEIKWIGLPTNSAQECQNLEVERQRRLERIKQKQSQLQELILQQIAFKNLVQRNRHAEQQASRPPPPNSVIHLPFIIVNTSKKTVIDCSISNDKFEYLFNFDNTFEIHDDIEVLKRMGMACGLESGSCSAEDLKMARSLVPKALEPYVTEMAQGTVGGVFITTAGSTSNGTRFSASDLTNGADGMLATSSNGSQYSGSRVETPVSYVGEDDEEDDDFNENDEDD
UniProt Q13952: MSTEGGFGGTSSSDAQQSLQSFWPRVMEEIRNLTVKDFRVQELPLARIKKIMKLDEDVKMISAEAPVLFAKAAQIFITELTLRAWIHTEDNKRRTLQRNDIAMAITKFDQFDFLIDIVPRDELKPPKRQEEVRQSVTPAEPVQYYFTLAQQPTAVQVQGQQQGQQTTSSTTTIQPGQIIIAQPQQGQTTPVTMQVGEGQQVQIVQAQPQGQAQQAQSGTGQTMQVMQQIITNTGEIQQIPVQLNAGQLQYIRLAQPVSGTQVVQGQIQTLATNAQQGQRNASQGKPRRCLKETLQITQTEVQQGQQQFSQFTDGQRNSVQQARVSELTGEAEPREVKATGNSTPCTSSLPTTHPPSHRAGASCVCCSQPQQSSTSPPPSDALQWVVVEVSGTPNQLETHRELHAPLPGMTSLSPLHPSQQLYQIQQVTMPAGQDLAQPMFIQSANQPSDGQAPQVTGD
UniProt Q14191, whole entry: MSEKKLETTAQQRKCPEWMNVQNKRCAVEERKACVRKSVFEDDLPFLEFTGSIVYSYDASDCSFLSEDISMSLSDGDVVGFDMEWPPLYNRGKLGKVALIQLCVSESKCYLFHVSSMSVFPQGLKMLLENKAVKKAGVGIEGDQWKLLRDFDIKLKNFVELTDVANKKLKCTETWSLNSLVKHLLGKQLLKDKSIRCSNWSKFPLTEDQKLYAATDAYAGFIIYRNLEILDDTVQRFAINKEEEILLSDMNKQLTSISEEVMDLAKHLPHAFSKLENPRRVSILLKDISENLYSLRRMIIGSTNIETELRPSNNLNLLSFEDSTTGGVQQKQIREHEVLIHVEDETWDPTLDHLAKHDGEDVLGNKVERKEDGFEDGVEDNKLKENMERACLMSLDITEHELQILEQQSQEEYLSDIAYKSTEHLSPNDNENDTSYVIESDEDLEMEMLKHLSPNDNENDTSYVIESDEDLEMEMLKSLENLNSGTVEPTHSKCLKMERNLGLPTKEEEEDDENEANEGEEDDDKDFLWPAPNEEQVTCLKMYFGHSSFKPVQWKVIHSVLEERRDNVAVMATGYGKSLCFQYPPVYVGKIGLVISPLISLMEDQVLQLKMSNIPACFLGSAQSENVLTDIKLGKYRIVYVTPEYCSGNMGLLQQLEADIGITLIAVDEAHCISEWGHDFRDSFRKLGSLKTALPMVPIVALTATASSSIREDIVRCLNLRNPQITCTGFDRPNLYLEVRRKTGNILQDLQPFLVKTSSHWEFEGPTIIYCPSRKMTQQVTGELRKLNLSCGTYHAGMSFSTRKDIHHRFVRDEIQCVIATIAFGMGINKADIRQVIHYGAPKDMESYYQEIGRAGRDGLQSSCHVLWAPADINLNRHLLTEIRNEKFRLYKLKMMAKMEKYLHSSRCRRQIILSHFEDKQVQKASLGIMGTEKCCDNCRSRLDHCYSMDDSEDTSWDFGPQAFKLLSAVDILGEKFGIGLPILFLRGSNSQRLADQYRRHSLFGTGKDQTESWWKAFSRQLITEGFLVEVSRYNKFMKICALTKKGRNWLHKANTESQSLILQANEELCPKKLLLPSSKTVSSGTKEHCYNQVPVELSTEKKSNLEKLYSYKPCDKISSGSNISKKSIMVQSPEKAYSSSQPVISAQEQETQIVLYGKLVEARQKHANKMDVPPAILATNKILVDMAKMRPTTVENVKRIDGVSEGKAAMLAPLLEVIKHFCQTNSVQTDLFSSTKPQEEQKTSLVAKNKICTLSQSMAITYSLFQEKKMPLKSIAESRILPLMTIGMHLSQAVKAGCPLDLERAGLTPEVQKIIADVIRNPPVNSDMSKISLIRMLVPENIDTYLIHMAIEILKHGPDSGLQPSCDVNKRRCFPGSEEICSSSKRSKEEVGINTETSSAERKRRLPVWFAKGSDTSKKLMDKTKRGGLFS
UniProt Q15051: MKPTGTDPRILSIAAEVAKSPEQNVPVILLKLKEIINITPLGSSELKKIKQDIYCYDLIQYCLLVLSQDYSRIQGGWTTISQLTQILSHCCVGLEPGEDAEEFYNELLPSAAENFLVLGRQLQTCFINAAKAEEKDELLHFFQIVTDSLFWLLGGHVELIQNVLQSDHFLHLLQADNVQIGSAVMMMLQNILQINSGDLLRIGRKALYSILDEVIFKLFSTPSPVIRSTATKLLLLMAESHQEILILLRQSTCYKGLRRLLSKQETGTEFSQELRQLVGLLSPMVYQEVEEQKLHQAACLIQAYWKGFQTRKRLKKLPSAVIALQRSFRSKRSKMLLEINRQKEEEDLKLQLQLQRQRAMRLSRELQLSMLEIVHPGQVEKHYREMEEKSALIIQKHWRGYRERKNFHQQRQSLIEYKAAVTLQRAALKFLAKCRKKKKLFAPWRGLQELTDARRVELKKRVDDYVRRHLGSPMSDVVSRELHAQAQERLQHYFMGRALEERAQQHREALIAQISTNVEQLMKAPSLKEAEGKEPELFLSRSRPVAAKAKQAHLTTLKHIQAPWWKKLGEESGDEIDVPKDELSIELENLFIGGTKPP
UniProt Q14137: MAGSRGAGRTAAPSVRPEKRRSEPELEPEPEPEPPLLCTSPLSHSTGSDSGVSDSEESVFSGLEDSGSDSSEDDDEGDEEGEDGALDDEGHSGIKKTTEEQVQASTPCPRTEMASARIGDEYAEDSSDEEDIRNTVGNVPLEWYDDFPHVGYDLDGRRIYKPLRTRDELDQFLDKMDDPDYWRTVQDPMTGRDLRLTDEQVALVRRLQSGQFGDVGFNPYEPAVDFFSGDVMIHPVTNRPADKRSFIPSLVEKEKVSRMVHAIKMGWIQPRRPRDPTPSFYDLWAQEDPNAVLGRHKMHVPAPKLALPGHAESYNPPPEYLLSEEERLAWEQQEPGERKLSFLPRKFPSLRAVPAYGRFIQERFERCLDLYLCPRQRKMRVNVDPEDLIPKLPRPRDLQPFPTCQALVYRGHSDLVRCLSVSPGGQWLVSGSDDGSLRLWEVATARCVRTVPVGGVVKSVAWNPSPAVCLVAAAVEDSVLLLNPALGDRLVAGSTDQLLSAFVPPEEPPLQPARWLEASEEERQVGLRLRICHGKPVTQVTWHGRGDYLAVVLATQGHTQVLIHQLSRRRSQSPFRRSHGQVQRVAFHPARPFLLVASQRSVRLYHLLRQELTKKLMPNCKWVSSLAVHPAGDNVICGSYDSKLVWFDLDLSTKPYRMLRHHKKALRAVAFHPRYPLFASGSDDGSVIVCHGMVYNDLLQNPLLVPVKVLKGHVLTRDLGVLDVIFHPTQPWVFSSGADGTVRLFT
UniProt Q13901: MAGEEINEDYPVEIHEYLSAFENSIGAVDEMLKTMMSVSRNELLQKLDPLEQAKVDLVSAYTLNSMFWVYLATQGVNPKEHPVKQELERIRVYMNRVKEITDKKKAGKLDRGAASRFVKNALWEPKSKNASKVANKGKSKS

Each target was assayed with CN[C@@H]1C[C@H]2O[C@@](C)([C@@H]1OC)n1c3ccccc3c3c4c(c5c6ccccc6n2c5c31)C(=O)NC4 [staurosporine] (assay: log2 fold change of tryptic peptide abundance, ligand vs vehicle (limited proteolysis) (log2 ratio); higher = more trypsin-susceptible (destabilized)). Settings: ligand concentration: 20 uM; sample: K562 cleared lysate; digestion: 4 min, 22 C (HT-PELSA RT4min, Orbitrap Astral).
“NCAPH (peptide sequence: TIEQNINNLNVSEADR, peptide start residue: 222) (UniProt Q15003)” gave a log2 fold change of 0.496.
“DCTN2 (peptide sequence: ENLATVEGNFASIDER, peptide start residue: 380) (UniProt Q13561)” gave a log2 fold change of -0.423.
In the case of “DHX34 (peptide sequence: LLEDAFFREEDYIR, peptide start residue: 38) (UniProt Q14147)”, the log2 fold change is reported as 0.42.
In the case of “TFDP1 (peptide sequence: VFIDQNLSPGK, peptide start residue: 16) (UniProt Q14186)”, the log2 fold change is reported as 0.105.
In the case of “NFYC (peptide sequence: MISAEAPVLFAK, peptide start residue: 60) (UniProt Q13952)”, the log2 fold change is reported as 0.117.
“ITPR1 (peptide sequence: SIHGVGELMTQVVLR, peptide start residue: 933) (UniProt Q14643)” was tested, and the log2 fold change was -0.774.
With “WRN (peptide sequence: NLEILDDTVQR, peptide start residue: 226) (UniProt Q14191)” the log2 fold change was 0.366.
In the case of “IQCB1 (peptide sequence: EAEGKEPELFLSR, peptide start residue: 529) (UniProt Q15051)”, the log2 fold change is reported as -0.332.
“BOP1 (peptide sequence: GDYLAVVLATQGHTQVLIHQLSR, peptide start residue: 546) (UniProt Q14137)” gave a log2 fold change of -0.393.
For “C1D (peptide sequence: NELLQKLDPLEQAK, peptide start residue: 41) (UniProt Q13901)”, the log2 fold change was 0.476.
